Experimental data: PubChem BioAssay AID1487 (National Center for Advancing Translational Sciences (NCATS), 2009)
This is one part of the list. The main result of the screen is listed elsewhere. These columns were measured beside it and carry no call. Compounds called inactive in the main read-out are mostly missing here. The note in brackets gives the kind of curve behind each potency; many fits are weak.

Test: qHTS Assay for Modulators of Lamin A Splicing
Conditions: HeLa LMNA splicing GFP/RFP minigene ratio, 48 h
Outline: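 Read-out is the ratio of GFP to DsRed2 object intensity, acquired by 488 nm laser-scanning cytometry on HeLa lamin A-EGFP minigene reporter cells. Compound incubation 48 hrs at 37 °C in Opti-MEM with 2% FBS; DMSO 0.5% final.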

[1] = measured here: RFP viability control channel
[2] = measured here: GFP splicing reporter channel

SMILES	AC50 [1]	AC50 [2]
COc1ccc(CNC(=O)COC(=O)c2n[nH]c3ccccc23)cc1OC	12.6 µM [rising, partial curve]	
CC1CCN(C(=O)/C(=C/c2ccccc2Cl)c2ccccc2)CC1	35.5 µM [rising, single point]	35.5 µM [rising, single point]
CN(C)C(=O)c1ccc(-c2nc(Nc3ccncc3)c3ccccc3n2)cc1	12.6 µM [rising, single point]	
Cc1ccc(CNC(=O)c2nc(-c3ccc(Cl)cc3)n3c2CCCCC3)cc1	31.6 µM [rising, single point]	
CCOC(=O)c1c(C)oc2c1c(C(c1cccnc1)N1CCN(C)CC1)c(O)c1ccccc12 (stereo not drawn)		22.4 µM [falling, single point]
Cc1ccc(N=Cc2cc3c(cc2O)OC(N)=C(C#N)C3c2ccccc2)cc1 (stereo not drawn)	6.31 µM [falling, single point]	20 µM [falling, partial curve]
COc1cccc(/C=N/Nc2nc3ccccc3n3cnnc23)c1O	10 µM [rising, partial curve, poor fit]	
O=C(NCC1(c2ccccc2)CCCC1)c1ccc(Br)o1	17.8 µM [rising, partial curve]	8.91 µM [rising, partial curve, poor fit]
CCOC(=O)C1(Cc2cccc(OC)c2)CCN(Cc2cccc(O)c2)CC1	12.6 µM [falling, partial curve]	12.6 µM [falling, partial curve]
CN(C)S(=O)(=O)c1cccc(NC(=O)c2ccncc2)c1	14.1 µM [rising, partial curve]	
CCC(C)(C)n1nnnc1C(c1cccs1)N1CCN(Cc2ccccc2)CC1 (stereo not drawn)	20 µM [rising, single point]	
C=CCc1cccc(/C=N/NC(=O)C(C)Nc2ccc(C)cc2)c1O (stereo not drawn)	35.5 µM [rising, single point]	17.8 µM [rising, single point]
Nc1nc(-c2ccc(Cl)cc2Cl)cn1N	35.5 µM [rising, single point]	
CCCSc1nc2c(c(=O)n(C)c(=O)n2C)n1Cc1ccc(C)cc1	11.2 µM [rising, single point]	10 µM [rising, partial curve]
CCCC(=O)NC(c1cccs1)c1cc([N+](=O)[O-])c2cccnc2c1O (stereo not drawn)	3.98 µM [rising, full curve, poor fit]	
COc1ccc(Cn2nnnc2CN2CCC(c3nc4ccccc4s3)CC2)cc1	14.1 µM [rising, partial curve]	12.6 µM [rising, partial curve]
COCCCNCCOCCSc1ccc(Cl)cc1		12.6 µM [rising, single point]
Clc1cccc(CNc2nnnn2-c2ccccc2)c1	10 µM [rising, partial curve]	
Cc1cnc(C(=O)OCC(=O)c2csc(N3CCCCC3)n2)cn1	5.62 µM [rising, single point]	
Cc1cccc(NS(=O)(=O)c2ccc3c(c2)Cc2cc(S(=O)(=O)Nc4cccc(C)c4C)ccc2-3)c1C	7.08 µM [rising, partial curve, poor fit]	
O=C(CCSCc1ccccc1F)N1CCN(c2ccc(Cl)cc2)CC1		0.00316 µM [falling, full curve, poor fit]
COc1ccc(NC(=O)C(C)N2c3cccc4cccc(c34)S2(=O)=O)cc1OC (stereo not drawn)	4.47 µM [rising, full curve]	
C/C(=N\NC(=O)CCc1ccccc1)C1C(=O)c2ccccc2C1=O	11.2 µM [falling, partial curve]	1 µM [falling, full curve]
C=CCn1c(SCC(=O)N2CCc3ccccc3C2)nc2sc(C)c(C)c2c1=O	17.8 µM [rising, single point]	
C/C(CCc1ccccc1)=N\NC(=O)c1ccccc1[N+](=O)[O-]	0.0398 µM [rising, full curve, poor fit]	
Cc1cccc(-c2nnc3sc(-c4ccccc4C)nn23)c1	35.5 µM [rising, single point]	35.5 µM [rising, single point]
COCCn1c(SCC(=O)Nc2cc(C)on2)nnc1-c1ccco1	3.16 µM [falling, partial curve, poor fit]	
O=S(=O)(c1cccc(NC(=S)N2CCN(c3ccccc3)CC2)c1)C(F)F	11.2 µM [rising, partial curve]	
Cc1cccc(NC(=O)c2ccc3nsnc3c2)c1C	3.98 µM [falling, partial curve]	

Exported as a markdown table: part of the list above

| SMILES | AC50 [1] | AC50 [2] |
| --- | --- | --- |
| CCOC(=O)c1c(C)oc2c1c(C(c1cccnc1)N1CCN(C)CC1)c(O)c1ccccc12 (stereo not drawn) |  | 22.4 µM [falling, single point] |
| Cc1ccc(N=Cc2cc3c(cc2O)OC(N)=C(C#N)C3c2ccccc2)cc1 (stereo not drawn) | 6.31 µM [falling, single point] | 20 µM [falling, partial curve] |
